Literature values, collected in patent US20220054532A1, “VETERINARY COMPOSITIONS AND METHODS OF USE THEREFOR” (priority 2019, published 2022).

Details: cited from earlier work

C=C(C)[C@@H]1CCC(C)=C[C@H]1c1c(O)cc(CCCCC)cc1O [CBD Alone, 2-[(1R,6R)-3-methyl-6-prop-1-en-2-ylcyclohex-2-en-1-yl]-5-pentylbenzene-1,3-diol]
solubility in organic solvents (organic solvents, such as pentane): soluble | solubility in water (water): insoluble
